This passage reports binding results from paper doi:10.1101/2020.03.25.006999.

The chains behind the UniProt entries cited, without tags or fusion partners. Residues count along the entry.
UniProt Q68DV7, residues 24-783: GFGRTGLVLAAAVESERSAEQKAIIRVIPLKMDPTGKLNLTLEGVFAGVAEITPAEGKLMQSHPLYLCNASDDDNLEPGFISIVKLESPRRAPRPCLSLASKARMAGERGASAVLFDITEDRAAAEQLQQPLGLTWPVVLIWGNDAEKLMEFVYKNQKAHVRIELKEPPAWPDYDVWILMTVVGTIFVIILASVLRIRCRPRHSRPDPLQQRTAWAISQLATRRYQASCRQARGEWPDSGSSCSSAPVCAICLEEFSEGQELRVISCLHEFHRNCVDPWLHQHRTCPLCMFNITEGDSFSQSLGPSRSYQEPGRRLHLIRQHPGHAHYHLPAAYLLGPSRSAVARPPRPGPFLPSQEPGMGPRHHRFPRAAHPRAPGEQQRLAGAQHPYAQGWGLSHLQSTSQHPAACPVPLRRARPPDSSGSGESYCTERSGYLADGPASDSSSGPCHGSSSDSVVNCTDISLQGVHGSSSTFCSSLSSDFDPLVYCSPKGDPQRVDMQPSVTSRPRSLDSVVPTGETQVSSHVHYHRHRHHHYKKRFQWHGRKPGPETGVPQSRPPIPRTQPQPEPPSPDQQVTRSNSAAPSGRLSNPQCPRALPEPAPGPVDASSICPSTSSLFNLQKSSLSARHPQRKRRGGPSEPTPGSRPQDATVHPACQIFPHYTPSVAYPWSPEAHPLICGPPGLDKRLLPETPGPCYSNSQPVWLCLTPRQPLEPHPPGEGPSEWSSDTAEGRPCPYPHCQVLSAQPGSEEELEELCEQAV
UniProt Q9ULT6, residues 56-936: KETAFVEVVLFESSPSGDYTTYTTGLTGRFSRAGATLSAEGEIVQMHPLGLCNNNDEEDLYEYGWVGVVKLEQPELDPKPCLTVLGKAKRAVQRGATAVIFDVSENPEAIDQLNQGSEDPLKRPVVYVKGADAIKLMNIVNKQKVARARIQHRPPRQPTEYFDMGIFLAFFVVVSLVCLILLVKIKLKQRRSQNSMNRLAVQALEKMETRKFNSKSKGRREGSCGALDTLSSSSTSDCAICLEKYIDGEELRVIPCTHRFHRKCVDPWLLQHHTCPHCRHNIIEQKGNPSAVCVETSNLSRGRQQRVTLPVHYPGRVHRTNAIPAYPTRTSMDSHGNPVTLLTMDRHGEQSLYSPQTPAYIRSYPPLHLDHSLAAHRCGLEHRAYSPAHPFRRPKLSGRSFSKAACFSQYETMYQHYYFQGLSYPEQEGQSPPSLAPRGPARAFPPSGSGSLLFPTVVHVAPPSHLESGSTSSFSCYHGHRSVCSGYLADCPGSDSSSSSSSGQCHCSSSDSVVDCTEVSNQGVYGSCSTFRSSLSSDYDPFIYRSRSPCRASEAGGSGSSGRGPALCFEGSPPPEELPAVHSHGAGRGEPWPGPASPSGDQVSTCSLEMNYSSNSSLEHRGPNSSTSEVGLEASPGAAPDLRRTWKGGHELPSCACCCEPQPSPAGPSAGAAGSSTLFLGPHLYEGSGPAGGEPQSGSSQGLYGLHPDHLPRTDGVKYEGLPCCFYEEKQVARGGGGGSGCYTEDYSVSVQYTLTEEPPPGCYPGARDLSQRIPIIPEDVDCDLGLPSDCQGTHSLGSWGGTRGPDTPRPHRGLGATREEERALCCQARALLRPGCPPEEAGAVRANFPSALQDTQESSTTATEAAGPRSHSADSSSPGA

In assay [1] the target is Myc-FLAG-tagged RNF43 (wild type) (human) (UniProt Q68DV7). Put plainly: co-IP.
Assay [2] has as its target RNF43 (wild type), co-expressed as two differently tagged copies: 3XFLAG-RNF43 and RNF43-MYC (human) (UniProt Q68DV7). Put plainly: co-IP.

These are yes or no findings as the source states them, for the method shown. In cells and extracts the contact can be indirect. Some entries that bind do so weakly or less than the wild type.

Regarding HA-ZNRF3 (from UniProt Q9ULT6 56-936), the binding result in assay [1] is reported as “binds”.
Regarding “RNF43 (wild type), co-expressed as two differently tagged copies: 3XFLAG-RNF43 and RNF43-MYC (from UniProt Q68DV7 24-783)”, the binding entry in assay [2] was “binds”.
